Drawing on doi:10.1101/2022.08.09.503213 (bioRxiv, 2022), this text covers binding for 1 molecule.

The assay deals with IFT-A(122^TULPmut): human IFT-A complex with IFT122 E1052R/Y1058A/S1062A/E1217R/D1218R (human). Briefly: SEC. Background: In gel filtration, larger molecules generally elute earlier.

No constants are given. Whether binding was seen depends on the method and setting.

B1: TULP3, full-length human (from TULP3^ZZ, TEV-cleaved) (protein, UniProt O75386 1-442)
chain: MEASRCRLSPSGDSVFHEEMMKMRQAKLDYQRLLLEKRQRKKRLEPFMVQPNPEARLRRAKPRASDEQTPLVNCHTPHSNVILHGIDGPAAVLKPDEVHAPSVSSSVVEEDAENTVDTASKPGLQERLQKHDISESVNFDEETDGISQSACLERPNSASSQNSTDTGTSGSATAAQPADNLLGDIDDLEDFVYSPAPQGVTVRCRIIRDKRGMDRGLFPTYYMYLEKEENQKIFLLAARKRKKSKTANYLISIDPVDLSREGESYVGKLRSNLMGTKFTVYDRGICPMKGRGLVGAAHTRQELAAISYETNVLGFKGPRKMSVIIPGMTLNHKQIPYQPQNNHDSLLSRWQNRTMENLVELHNKAPVWNSDTQSYVLNFRGRVTQASVKNFQIVHKNDPDYIVMQFGRVADDVFTLDYNYPLCAVQAFGIGLSSFDSKLACE
On to B1, for which the binding result is “no binding”.
